Experimental data taken from PubChem BioAssay AID200 (DTP/NCI, 2004).
The list is a part of this screen's results and no random one: it gathers tests that were run many times, whatever their T/C, doses with no T/C, and many T/C values between a quarter and a half above the control. Other doses and runs of a compound stand elsewhere. T/C: endpoint of the treated group in % of that of the vehicle group. Some doses have a count of surviving animals in place of a T/C: the source files T/C as zero there, which appears to mark a toxic dose or a test without result, not a measured value. Some survivor counts are full or nearly so, which does not show that the dose was tolerated: the source hardly ever lists a survival T/C far under the control, and the zero likely stands for such cases as well. Survivors were counted at the toxicity check, usually on the fifth day, unless a day is given; later deaths do not show. Schedules are NCI's codes, read here as Q, the interval in days (D) or hours (H), X, the number of doses. Where survival is the endpoint, the PubChem record calls one and a half times the control and up active, and a quarter to a half above the control has no call in these data; cut-offs in other NCI protocols can differ.

Tested on: B6C3F1 mice, B16 melanoma ip, median survival T/C
Test: NCI In Vivo Anticancer Drug Screen. Data for tumor model B16 Melanoma (intraperitoneal) in B6C3F1 mice
Details: T/C endpoint: median survival time, schedule: Q01DX009 (ip), higher T/C = longer survival
Summary of the method: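 Values are T/C ratios: the measurement in treated animals divided by that in vehicle-treated controls, using survival or tumor size in mice carrying transplantable tumors.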

| SMILES | T/C (dose: 0.62 mg/kg/injection, vehicle: other) | T/C (dose: 1.25 mg/kg/injection, vehicle: saline with Tween-80) | T/C (dose: 2.5 mg/kg/injection, vehicle: saline with Tween-80) | T/C (dose: 5.0 mg/kg/injection, vehicle: other) | survivor count (dose: 10.0 mg/kg/injection, vehicle: saline with Tween-80) | survivor count (dose: 400.0 mg/kg/injection, vehicle: saline with Tween-80) |
| --- | --- | --- | --- | --- | --- | --- |
| COC1CC(C)C(OC)c2cc(O)cc(c2O)NC(=O)/C(C)=C/C=C\C(C)C(OC(N)=O)/C(C)=C\C(C)C1OC (stereo unspecified) | 131 % of control | 132 % of control | 146 % of control | 130 % of control | 9 of 9 |  |
| Brc1ccc(C[N+]23CN4CN(CN(C4)C2)C3)cc1 |  |  |  |  |  | 0 of 10 |
